Holding throughout (experiment): two-hybrid; yeast strain AH109; bait on the DNA-binding domain (pGBKT7), prey on the activation domain (pGADT7); growth on SD (-Trp, -Leu, -His) with 1 mM 3-AT, tenfold serial dilutions
Experiment [1] concerns the target T1, PUB30 (1-65 + 132-448), PUB30 (ΔU-box), as bait (Arabidopsis thaliana) (UniProt Q058P4).
T1 sequence: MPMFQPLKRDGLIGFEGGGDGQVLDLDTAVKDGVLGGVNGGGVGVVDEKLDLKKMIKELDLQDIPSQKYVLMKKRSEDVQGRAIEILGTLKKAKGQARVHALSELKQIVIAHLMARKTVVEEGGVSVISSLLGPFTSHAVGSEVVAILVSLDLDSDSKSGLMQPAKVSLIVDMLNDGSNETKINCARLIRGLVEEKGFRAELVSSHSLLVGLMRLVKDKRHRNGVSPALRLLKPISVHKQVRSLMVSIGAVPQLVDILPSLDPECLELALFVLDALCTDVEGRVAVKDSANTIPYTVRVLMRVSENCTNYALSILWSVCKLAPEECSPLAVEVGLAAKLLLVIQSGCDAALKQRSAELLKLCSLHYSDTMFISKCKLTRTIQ

Experiment [2] concerns the target T2, PUB31 (1-61 + 128-444), PUB31 (ΔU-box), as bait (Arabidopsis thaliana) (UniProt Q9FHN9).
T2 sequence: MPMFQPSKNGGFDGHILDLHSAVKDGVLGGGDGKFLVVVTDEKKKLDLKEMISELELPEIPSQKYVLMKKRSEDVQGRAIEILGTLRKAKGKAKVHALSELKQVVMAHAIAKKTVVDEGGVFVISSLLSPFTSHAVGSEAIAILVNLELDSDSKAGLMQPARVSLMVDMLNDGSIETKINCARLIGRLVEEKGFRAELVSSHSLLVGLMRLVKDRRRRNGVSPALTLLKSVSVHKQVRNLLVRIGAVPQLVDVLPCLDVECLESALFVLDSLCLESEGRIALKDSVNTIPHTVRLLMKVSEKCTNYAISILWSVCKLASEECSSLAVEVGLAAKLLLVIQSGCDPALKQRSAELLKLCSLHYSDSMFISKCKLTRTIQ

Experiment [3] addresses T3, BD-PUB30 (full length PUB30 as bait) (Arabidopsis thaliana) (UniProt Q058P4).
T3 sequence: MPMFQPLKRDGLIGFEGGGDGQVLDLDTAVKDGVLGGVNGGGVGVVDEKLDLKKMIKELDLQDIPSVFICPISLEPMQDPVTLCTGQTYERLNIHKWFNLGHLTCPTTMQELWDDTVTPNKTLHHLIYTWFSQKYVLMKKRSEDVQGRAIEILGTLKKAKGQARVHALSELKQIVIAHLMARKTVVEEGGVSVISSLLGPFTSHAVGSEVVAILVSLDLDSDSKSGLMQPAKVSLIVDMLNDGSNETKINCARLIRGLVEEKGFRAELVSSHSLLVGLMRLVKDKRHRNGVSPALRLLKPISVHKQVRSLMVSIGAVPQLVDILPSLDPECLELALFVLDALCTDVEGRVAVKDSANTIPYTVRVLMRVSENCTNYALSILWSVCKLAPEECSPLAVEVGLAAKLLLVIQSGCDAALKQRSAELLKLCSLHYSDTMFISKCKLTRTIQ

For experiment [4], the target named is T4, BD-PUB31 (full length PUB31 as bait) (Arabidopsis thaliana) (UniProt Q9FHN9).
T4 sequence: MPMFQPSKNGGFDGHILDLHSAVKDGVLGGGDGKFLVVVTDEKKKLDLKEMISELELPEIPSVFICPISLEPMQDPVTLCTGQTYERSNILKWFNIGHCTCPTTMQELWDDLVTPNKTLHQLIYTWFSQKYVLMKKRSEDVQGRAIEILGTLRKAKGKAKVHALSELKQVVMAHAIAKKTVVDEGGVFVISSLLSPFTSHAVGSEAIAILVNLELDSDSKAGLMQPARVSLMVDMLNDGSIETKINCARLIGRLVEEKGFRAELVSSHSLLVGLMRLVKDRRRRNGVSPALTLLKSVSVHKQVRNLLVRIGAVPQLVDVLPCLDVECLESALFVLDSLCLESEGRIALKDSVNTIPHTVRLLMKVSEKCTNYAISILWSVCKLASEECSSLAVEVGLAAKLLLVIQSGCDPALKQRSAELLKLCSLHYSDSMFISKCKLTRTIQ

Experiment [5] addresses BD-BAK1_CD (cytosolic domain of BAK1 fused with DNA-binding domain) (Arabidopsis thaliana).
Experiment [6] has as its target BD-ER_CD (cytosolic domain of ERECTA fused to the DNA-binding domain) (Arabidopsis thaliana).

Four molecules from article PMC9873567 (2022) can be followed below.

Results are given in words; binding and its absence hold for the method and conditions named. For some assays here: Binding can be weak; no strength is given. For some assays here: Tags and fused reporters may be left off the sequences shown.

“BAK1 (BAK1_CD) in the domain analysis in yeast (Extended Data Fig. 4c,d) (Arabidopsis thaliana) (domain or fragment)”: the binding result in experiment [1] and in experiment [2] was “binds” in each case.
For the molecule “TPR domain of BSK1 as prey (Arabidopsis thaliana) (domain or fragment)”, the binding entry in experiment [3] and in experiment [4] was “no binding” throughout.

B1: AD-PUB31 (full-length PUB31 fused to the activation domain) (enzyme, UniProt Q9FHN9 1-444)
chain: T4 sequence
Turning to B1, the binding entry in experiment [5] and in experiment [6] was “binds” each time.

B2: AD-PUB30 (full-length PUB30 fused to the activation domain) (enzyme, UniProt Q058P4 1-448)
chain: T3 sequence
On to B2, for which the binding entry in experiment [5] and in experiment [6] was “binds” throughout.
